Measured values published in patent publication US6372777B1, “Cyclic AMP-specific phosphodiesterase inhibitors” (ICOS Corporation, priority 1999, dated 2002).
At least one structure is not confirmed: it was looked up by name or label, or the drawing left a doubt.

Tested on: spontaneous mobility
Assay: Locomotor activity / sedative side-effect visual scoring
Format: in vivo, female Balb/c mice
Parameters: key to the marks not given beside the values
Conditions: 100 mg/kg i.p., mice
Protocol: The purpose of this study was to determine the efficacy of PDE4 inhibitors in vivo in an LPS mouse model together with a determination with respect to central nervous system (CNS) side-effects manifested by a decrease in spontaneous mobility.
The test animals were female Balb/c mice, having an average weight of about 20 g. The PDE4 inhibitors, formulated in 30% Cremophor® EL, were administered via intraperitoneal (i.p.) injections at doses of 0.1, 1.0, 10.0, and 100 mg/kg. Individual dose volumes (about […]) were adjusted based on the body weights measured. One hour later, 5 mg/kg LPS in a final volume of 200 μL was injected via the tail vein to each animal. Ninety minutes following the LPS treatment, the animals were bled and serum samples were collected before being stored at −70° C. until assayed.
For side-effect profiling, a subjective visual scoring system was utilized at 5 min and 20min after administration of PDE4 inhibitors. […] In this instance, the subjects could be monitored continuously over pre-set intervals.
Movement of the X-Y plane, or rearing up on the hind legs, was quantified by counting the number of “light-beam” crosses per unit of time. […] The quantitative scoring correlated well with the subjective measurements described above.

SMILES: COC(=O)N1C[C@@H](c2ccc(OC)c(OC3CCCC3)c2)[C@](C)(C(C)=O)C1 (relative stereo) [Comparative Example, trans-3-(3-cyclopentoxy-4-methoxyphenyl)-1-methoxycarbonyl-4-methyl-4-(methylcarbonyl)pyrrolidine, reference compound]
- Sedative Effect: +++
